Results on 24 molecules are retold here after the supplement of paper PMC8551327.

Structures can show the parent of a compound that is named as a salt. This is one part of the list. No stated cut-off is given here; in the data, active = 1.25 or more and inactive = the rest. Most values come without repeats; read them as rough.

The assay concerns Kcc2-LUC knock-in mouse primary cortical neurons (Kcc2 promoter reporter). The assay is described as follows: Kcc2 promoter-driven luciferase activity relative to vehicle control (fold of vehicle (ratio)); higher = stronger Kcc2 promoter activation (Kcc2 expression enhancer). The conditions noted are these: 100 nM; 48 h.
On to `O=c1oc2c(O)c(O)cc3c(=O)oc4c(O)c(O)cc1c4c23` [Ellagic Acid], for which the “Kcc2 promoter-driven luciferase activity” value was active: 1.42.
As for `c1coc(CNc2ncnc3[nH]ncc23)c1` [N-(Furan-2-ylmethyl)-1H-pyrazolo[3,4-d]pyrimidin-4-amine], the figure is inactive: 0.84.
The same measure for `COc1ccc2cc1Oc1ccc(cc1)C[C@@H]1c3cc(c(OC)cc3CCN1C)Oc1c(OC)c(OC)cc3c1[C@H](C2)N(C)CC3` [Isotetrandrine]: inactive: 0.99; for `COc1cc2cc(c1Cl)N(C)C(=O)C[C@H](OC(=O)[C@H](C)N(C)C(C)=O)[C@]1(C)O[C@H]1[C@H](C)[C@@H]1C[C@@](O)(NC(=O)O1)[C@H](OC)/C=C/C=C(\C)C2` [Maytansine]: inactive: 0.435.
As for `CS[C@H]1SC[C@H]2C(=O)N(C)[C@@H](C(C)C)C(=O)OC[C@@H](NC(=O)c3cnc4ccccc4n3)C(=O)N[C@@H](C)C(=O)N(C)[C@@H]1C(=O)N(C)[C@@H](C(C)C)C(=O)OC[C@@H](NC(=O)c1cnc3ccccc3n1)C(=O)N[C@@H](C)C(=O)N2C` [Echinomycin], the figure is inactive: 1.1.
Consider `CO[C@H](C(=O)[C@@H](O)[C@@H](C)O)[C@@H]1Cc2cc3cc(O[C@H]4C[C@@H](O[C@H]5C[C@@H](O)[C@H](O)[C@@H](C)O5)[C@H](O)[C@@H](C)O4)c(C)c(O)c3c(O)c2C(=O)[C@H]1O[C@H]1C[C@@H](O[C@H]2C[C@@H](O[C@H]3C[C@](C)(O)[C@H](O)[C@@H](C)O3)[C@@H](O)[C@@H](C)O2)[C@H](O)[C@@H](C)O1` [Plicamycin], for which the “Kcc2 promoter-driven luciferase activity” value was inactive: 1.18.
As for `COC(=O)C1C(O)C(C)C(O)OC1C(C)C(O)C(C)/C=C\C=C(/C)C(=O)Nc1c(C)c(OC(C)=O)c2c(c1O)C(=O)C(C)=C1OCOC(/C(C)=C/C(C)=O)=C12` (centres undefined) [Streptoval C], the figure is inactive: 0.72.
As for `C[n+]1c(-c2ccc(/C=C/C=N/NC(=O)c3ccc(C(=O)N/N=C/C=C/c4ccc(-c5cn6ccccc6[n+]5C)cc4)cc3)cc2)cn2ccccc21`, the figure is inactive: 1.14; as for `CC1(C)N=C(N)N=C(N)N1c1ccc(CCCCc2ccc(Cl)cc2Cl)cc1`, inactive: 0.925; as for `CN(Cc1cnc2nc(N)nc(N)c2n1)c1ccc(C(=O)NC(CCC(=O)O)C(=O)O)c2ccccc12` (centres undefined), inactive: 0.82.
The same measure for `C[C@H]1CC[C@@H](C(C)(C)O)CC2=C1CC[C@@H]2C` [Guaiol]: inactive: 0.914; for `C=CC(=O)N1C/C(=C\c2ccccc2)C(=O)/C(=C/c2ccccc2)C1` [(3E,5E)-3,5-dibenzylidene-1-prop-2-enoylpiperidin-4-one]: inactive: 1.17.
For `Cc1cc([N+](=O)[O-])ccc1Nc1cccc(Cl)c1C` [3-chloro-2-methyl-N-(2-methyl-4-nitrophenyl)aniline], the “Kcc2 promoter-driven luciferase activity” value is inactive: 0.68.
The same measure for `COc1c2c(cc3c1C1Oc4c(ccc(O)c4CC=C(C)C)C1CO3)OC(C)(C)C=C2` (centres undefined) [Gangetin]: inactive: 1.13; for `O=C1C(=Cc2ccccc2)CN(C(=O)/C=C/c2ccccc2)C/C1=C\c1ccccc1` (stereo in doubt): inactive: 1.06.
As for `CC(=O)O[C@]1(C(C)=O)CC[C@H]2[C@@H]3C[C@H](C)C4=CC(=O)C=C[C@]4(C)[C@@]3(F)[C@@H](O)C[C@@]21C`, the figure is inactive: 0.42; as for `NC(N)=NCCCS(=O)(=O)Nc1ccc(Nc2c3ccccc3nc3cc([N+](=O)[O-])ccc23)cc1` [1-Propanesulfonamide, dihydrochloride], inactive: 1.
As for `Cc1cc(=O)[nH]c(NN2C(Cl)C(=O)C2c2c(O)ccc3ccccc23)n1` (centres undefined), the figure is inactive: 0.01.
For the molecule `Cc1cc(C)c(NC(=O)/C=C/c2ccccc2)c(C)c1` [N-Mesityl-3-phenylacrylamide], the “Kcc2 promoter-driven luciferase activity” value is inactive: 0.34.
For the molecule `CC(C)=CCC(OC(=O)C=C(C)C)C1=CC(=O)c2c(O)ccc(O)c2C1=O` (centres undefined) [Arnebin 1], the “Kcc2 promoter-driven luciferase activity” value is inactive: 0.05.
The same measure for `Nc1nc(O)c2[nH]nnc2n1` [8-Azaguanine]: active: 1.58; for `O=C(CCc1ccccc1)On1nnc2ccccc2c1=O` [(4-Oxo-1,2,3-benzotriazin-3-yl) 3-phenylpropanoate]: inactive: 0.57; for `CC(=O)c1ccc(Oc2ccc(/C(C)=N/N=C(N)N)cc2)cc1`: active: 1.32.
As for `COC(=O)C1(C)C=CC(=O)C2(C)C1C(O)C1OC3CC(c4ccoc4)C(C)=C3C1(C)C2CC(=O)O` (centres undefined) [Nimbinic Acid], the “Kcc2 promoter-driven luciferase activity” value was active: 1.29.
